Source: patent publication US20110097324A1, “COMPOSITIONS AND METHODS FOR MODULATING NICOTINIC/NMDA RECEPTOR FUNCTION” (CENTRE FOR ADDICTION AND MENTAL HEALTH, priority 2008, published 2011)
Results are given in words; binding and its absence hold for the method and conditions named. Binding seen in cells or lysates may run through a third protein. Some binding calls cover weakened binding; strength is not graded here.

By UniProt entry, the sequences of proteins in these tests, tags left out. Residues count along the entry.
UniProt Q05941, residues 23-502: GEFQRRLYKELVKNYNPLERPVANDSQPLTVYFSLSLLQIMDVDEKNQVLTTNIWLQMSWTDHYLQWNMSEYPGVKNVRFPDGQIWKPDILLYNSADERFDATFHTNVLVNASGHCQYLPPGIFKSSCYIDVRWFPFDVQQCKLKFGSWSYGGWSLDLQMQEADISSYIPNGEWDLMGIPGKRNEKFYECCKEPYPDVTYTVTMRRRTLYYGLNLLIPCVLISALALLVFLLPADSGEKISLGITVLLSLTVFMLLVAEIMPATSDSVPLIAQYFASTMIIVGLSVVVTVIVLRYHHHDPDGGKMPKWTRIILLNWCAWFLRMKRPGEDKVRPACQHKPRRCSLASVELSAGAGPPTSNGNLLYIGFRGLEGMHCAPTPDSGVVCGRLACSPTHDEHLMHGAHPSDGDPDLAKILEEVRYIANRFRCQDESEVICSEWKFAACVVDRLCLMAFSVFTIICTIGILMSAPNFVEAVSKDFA

Legend:
[1] = biological target: NR2A subunit of the NMDA glutamate receptor, solubilized from rat hippocampus (rat) (UniProt Q00959); experiment: co-immunoprecipitation with anti-NR2A antibody, hippocampal primary culture treated with choline (FIG. 2I)
[2] = biological target: NR2A subunit of the NMDA glutamate receptor, solubilized from rat hippocampus (rat) (UniProt Q00959); experiment: co-immunoprecipitation, rat hippocampal tissue (FIG. 2A)
[3] = biological target: NR2A subunit of the NMDA glutamate receptor, solubilized from rat hippocampus (rat) (UniProt Q00959); experiment: co-immunoprecipitation, rat hippocampal tissue (FIG. 2A, 2I)
[4] = biological target: NR2A subunit of the NMDA glutamate receptor, solubilized from rat hippocampus (rat) (UniProt Q00959); experiment: co-immunoprecipitation, rat hippocampus (FIG. 7)
[5] = biological target: NR2A subunit of the NMDA glutamate receptor, solubilized from rat hippocampus (rat) (UniProt Q00959); experiment: co-immunoprecipitation, rat hippocampus after 7 days of nicotine or saline (FIG. 7)

binding [1]: binds | binding [2]: binds | binding [3]: binds | binding [4]: binds | binding [5]: binds
Substance: α7 nicotinic acetylcholine receptor (α7-nAchR), solubilized from rat hippocampus (from UniProt Q05941 23-502)
